Measurements: patent US11806343B2, “Inhibitors of DUX4 induction for regulation of muscle function” (Sonic Master Limited, priority 2017, dated 2023)
pEC50: −log10 of the molar value.

Tested on: DUX4
Assay: DUX4 expression downregulation by kinase family inhibitors (Table 1)
Assay type: cell-based
Conditions: DUX4 reduction

Compound `Cc1ccc(NC(=O)c2ccc(CN3CCN(C)CC3)cc2)cc1Nc1nccc(-c2cccnc2)n1` [Imatinib] has a pEC50 of 6.42.
